# Assay results taken from PubChem BioAssay AID2685 (National Center for Advancing Translational Sciences (NCATS), 2010).
# This is one part of the list. These are further read-outs of the screen, such as a control signal, another cell line or another target. No call is given for them. Most of these compounds were active or inconclusive in the main read-out, so they are no random draw. Potencies come from curve fits of mixed quality, noted in brackets.
# Assay: qHTS Assay for Lipid Storage Modulators in Drosophila S3 Cells;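 as to cell number change: cells counted by Cell Tracker Red CMTPX staining in the red channel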
# Conditions: BODIPY lipid droplet fluorescence, 18-24 h; for cell number change: measured here: cell count max response, cells fed with added oleic acid
# Procedure, shortened: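 Drosophila S3 cells loaded with oleic acid (400 uM, as added) and compounds at several concentrations; lipid droplets imaged by 488-nm laser-scanning cytometry, 500–530 nm intensity and object ratio to cell channel. Percent activity normalized to 20 uM Triacsin C.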
# [1] = measured here: lipid fluorescence (Fed channel) AC50, cells fed with added oleic acid
# [2] = measured here: cell number channel AC50, cells fed with added oleic acid
smiles,measurement,setting,value
CCC(OC(=O)c1cccs1)C(=O)NC1CCCCC1 (stereo unspecified),cell number change,,0.715%
same,AC50,[1],"0.164 µM [falling, full curve]"
CCc1nn(-c2cc(Oc3ccccc3)nc(-c3ccccc3)n2)c(N)c1C#N,cell number change,,13.2%
same,AC50,[1],"5.8 µM [rising, partial curve]"
Cc1ccc(NC(=O)CCN2C(=O)c3ccccc3C2=O)cc1,cell number change,,-12.7%
same,AC50,[1],"0.58 µM [rising, single point]"
COc1ccc(C2C(C(=O)OCC(=O)Nc3ccc(C)cc3)CCC(=O)N2c2ccc(OC)cc2)cc1 (stereo unspecified),AC50,[2],"1.84 µM [rising, partial curve]"
CCn1c(-c2ccsc2)nc2c1c(=O)[nH]c(=O)n2Cc1ccccc1,cell number change,,-4.17%
same,AC50,[1],"1.3 µM [rising, full curve]"
Cc1cc(N2CCOCC2)n2nc(C(F)(F)F)c(-c3ccccc3)c2n1,cell number change,,11.8%
same,AC50,[2],"6.51 µM [falling, single point]"
same,AC50,[1],"6.51 µM [falling, single point]"
Cc1ccc(NC(=O)COc2ccc(C(=O)c3ccccc3)cc2)c(O)c1,AC50,[1],"20 µM [falling, single point]"
COc1ccc(N2CCN(C(=O)c3cc4c(s3)CCCCC4)CC2)cc1,cell number change,,4.74%
same,AC50,[1],"7.31 µM [falling, partial curve]"
O=C1c2ccccc2-c2onc3ccc(NCc4ccco4)c1c23,cell number change,,-103%
same,AC50,[2],"18.4 µM [falling, partial curve]"
same,AC50,[1],"5.8 µM [falling, full curve]"
N/C(=N\OS(=O)(=O)c1ccc2ccccc2c1)c1cccnc1,cell number change,,3.08%
O=C(/C=C/c1ccc(Br)cc1)c1ccc(NC2=NCCCS2)cc1,cell number change,,-17.5%
same,AC50,[1],"29.1 µM [falling, single point]"
Fc1ccccc1C1c2[nH]c3ccccc3c2CCN1Cc1ccoc1 (stereo unspecified),cell number change,,-42.9%
same,AC50,[2],"9.2 µM [falling, partial curve]"
same,AC50,[1],"6.51 µM [falling, full curve, poor fit]"
CCOc1ncccc1C(=O)NNC(=O)c1cccc(S(=O)(=O)Nc2ccccc2OC)c1,AC50,[2],"3.66 µM [falling, partial curve]"
same,AC50,[1],"29.1 µM [falling, single point]"
COc1ccccc1CNCC(=O)Nc1ccc(N(C)C)cc1,cell number change,,18.3%
same,AC50,[1],"1.64 µM [rising, full curve, poor fit]"
Cc1ccc(OCC(=O)Nc2ccc3oc(=O)ccc3c2)cc1C,cell number change,,23.9%
COc1cc(/C=N/NC(=O)Cc2nnc(NC(=O)c3ccccc3)s2)ccc1O,cell number change,,19.1%
same,AC50,[2],"2.06 µM [rising, full curve, poor fit]"
Cc1ccc(S(=O)(=O)NCCC(=O)NNC(=O)c2ccccc2O)cc1C,cell number change,,1.68%
Cc1ccc2cc(CCNC(=O)C(C)C)c(=O)[nH]c2c1,AC50,[2],"1.84 µM [rising, partial curve]"
CN(C)C(=O)C(=O)c1c(-c2ccccc2)cc2ccccn12,cell number change,,-110%
same,AC50,[2],"25.9 µM [falling, partial curve, poor fit]"
same,AC50,[1],"16.4 µM [falling, partial curve]"
Cc1ccc(-c2nn(CC(N)=O)c(=O)c3ccccc23)cc1S(=O)(=O)N(C)C,cell number change,,50.4%
same,AC50,[2],"1.64 µM [rising, full curve]"
same,AC50,[1],"0.366 µM [rising, partial curve, poor fit]"
COc1cccc(N2CCN(C(=O)c3ccc4nc(N5CCCCC5)sc4c3)CC2)c1,AC50,[1],"29.1 µM [falling, single point]"
CCOc1ncccc1C(=O)Nc1cc(S(=O)(=O)N2CCCCC2)ccc1C,cell number change,,6.59%
same,AC50,[2],"0.92 µM [rising, partial curve, poor fit]"
same,AC50,[1],"0.58 µM [rising, full curve]"
Cc1ccc(N2C(=O)c3ccc(C(=O)O)cc3C2=O)c(C)c1,cell number change,,-9.16%
COCc1cc(C)nc2sc3c(=O)oc(C)nc3c12,cell number change,,-14%
same,AC50,[1],"0.517 µM [rising, single point]"
C#CCOCCOCCOCCNc1nc(N2CCN(C(=O)[C@H](Cc3cc4ccccc4[nH]3)n3cc([C@@H](N)Cc4ccc(O)cc4)nn3)CC2)nc(N2CCN(C(=O)[C@H](Cc3cc4ccccc4[nH]3)n3cc([C@@H](N)CC(C)C)nn3)CC2)n1,cell number change,,-35.9%
same,AC50,[2],"32.6 µM [falling, single point]"
same,AC50,[1],"32.6 µM [falling, single point]"
O=C(Cc1ccccc1)Nc1nnc(-c2cccs2)s1,cell number change,,75.3%
same,AC50,[2],"11.6 µM [rising, partial curve]"
same,AC50,[1],"8.2 µM [rising, partial curve]"
CCCCc1nc2ccccc2c(NC(=O)CN(CC)CC)c1CCC,cell number change,,9.83%
same,AC50,[2],"0.651 µM [rising, single point]"
Cc1cc(OCc2cc(C(=O)N3CCC(Oc4cccnc4)CC3)no2)cc(C)c1Cl,cell number change,,-10.4%
CCC(C)(C)NC(=O)C(C(C)C)N(CC1CCCO1)C(=O)CNS(=O)(=O)c1ccc(F)cc1 (stereo unspecified),cell number change,,-20.5%
O=Nc1c(O)n(Cc2ccc(Cl)cc2)c2ccccc12,cell number change,,-50.9%
same,AC50,[2],"20.6 µM [falling, partial curve]"
same,AC50,[1],"29.1 µM [falling, single point]"
CCCCC(=O)Nc1ccccc1Oc1ccccc1,cell number change,,20.3%
same,AC50,[1],"1.84 µM [rising, full curve, poor fit]"
O=C(c1cc(-c2ccc(Br)cc2)on1)N1CCOCC1,cell number change,,25.7%
same,AC50,[1],"0.58 µM [falling, single point]"
CCCc1ccc(S(=O)(=O)N2CCN(C(C)C(=O)NCc3ccccc3)CC2)cc1 (stereo unspecified),cell number change,,81.1%
same,AC50,[2],"20.6 µM [rising, partial curve]"
Cc1ccc(OCC(=O)NS(=O)(=O)c2ccccc2)cc1,cell number change,,-7.32%
Cc1nc(OCc2ccccc2)c2sc3nc4c(cc3c2n1)COC(C)(C)C4,cell number change,,-23.2%
same,AC50,[2],"0.326 µM [rising, full curve, poor fit]"
same,AC50,[1],"0.164 µM [rising, full curve, poor fit]"
CN(CC(=O)Nc1cccc(F)c1)C(=O)c1ccc(-c2cccc(C(F)(F)F)c2)o1,cell number change,,-54.5%
same,AC50,[2],"16.4 µM [falling, partial curve]"

# 19 successive records out of the list so far, quoted:
smiles,measurement,setting,value
Fc1ccccc1C1c2[nH]c3ccccc3c2CCN1Cc1ccoc1 (stereo unspecified),AC50,[1],"6.51 µM [falling, full curve, poor fit]"
CCOc1ncccc1C(=O)NNC(=O)c1cccc(S(=O)(=O)Nc2ccccc2OC)c1,AC50,[2],"3.66 µM [falling, partial curve]"
same,AC50,[1],"29.1 µM [falling, single point]"
COc1ccccc1CNCC(=O)Nc1ccc(N(C)C)cc1,cell number change,,18.3%
same,AC50,[1],"1.64 µM [rising, full curve, poor fit]"
Cc1ccc(OCC(=O)Nc2ccc3oc(=O)ccc3c2)cc1C,cell number change,,23.9%
COc1cc(/C=N/NC(=O)Cc2nnc(NC(=O)c3ccccc3)s2)ccc1O,cell number change,,19.1%
same,AC50,[2],"2.06 µM [rising, full curve, poor fit]"
Cc1ccc(S(=O)(=O)NCCC(=O)NNC(=O)c2ccccc2O)cc1C,cell number change,,1.68%
Cc1ccc2cc(CCNC(=O)C(C)C)c(=O)[nH]c2c1,AC50,[2],"1.84 µM [rising, partial curve]"
CN(C)C(=O)C(=O)c1c(-c2ccccc2)cc2ccccn12,cell number change,,-110%
same,AC50,[2],"25.9 µM [falling, partial curve, poor fit]"
same,AC50,[1],"16.4 µM [falling, partial curve]"
Cc1ccc(-c2nn(CC(N)=O)c(=O)c3ccccc23)cc1S(=O)(=O)N(C)C,cell number change,,50.4%
same,AC50,[2],"1.64 µM [rising, full curve]"
same,AC50,[1],"0.366 µM [rising, partial curve, poor fit]"
COc1cccc(N2CCN(C(=O)c3ccc4nc(N5CCCCC5)sc4c3)CC2)c1,AC50,[1],"29.1 µM [falling, single point]"
CCOc1ncccc1C(=O)Nc1cc(S(=O)(=O)N2CCCCC2)ccc1C,cell number change,,6.59%
same,AC50,[2],"0.92 µM [rising, partial curve, poor fit]"
